# Measured values from patent publication US20230220093A1 (published 2023).
# Chains of the proteins cited; added tags and fusions are not shown. Residues count along the entry.
# UniProt P02768, residues 25-609: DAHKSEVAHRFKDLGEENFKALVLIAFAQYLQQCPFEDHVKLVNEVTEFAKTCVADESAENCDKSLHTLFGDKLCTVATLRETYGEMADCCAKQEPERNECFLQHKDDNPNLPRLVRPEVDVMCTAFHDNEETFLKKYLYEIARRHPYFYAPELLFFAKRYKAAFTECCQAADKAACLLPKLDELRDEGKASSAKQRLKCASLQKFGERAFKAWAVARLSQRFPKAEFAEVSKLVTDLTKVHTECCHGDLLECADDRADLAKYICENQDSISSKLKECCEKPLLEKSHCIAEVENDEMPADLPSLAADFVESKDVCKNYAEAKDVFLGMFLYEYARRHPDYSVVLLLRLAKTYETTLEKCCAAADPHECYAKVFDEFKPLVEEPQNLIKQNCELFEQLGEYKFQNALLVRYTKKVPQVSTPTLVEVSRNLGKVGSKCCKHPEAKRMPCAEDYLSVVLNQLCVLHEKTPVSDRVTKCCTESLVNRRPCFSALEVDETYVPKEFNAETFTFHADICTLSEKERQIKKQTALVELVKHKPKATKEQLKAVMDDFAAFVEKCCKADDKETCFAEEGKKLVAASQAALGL
# No constants are given. Whether binding was seen depends on the method and setting. Some entries that bind do so weakly or less than the wild type.
# B1: APB-A1, recombinant antibody (anti-CD40L scFv)2-anti-HSA Fab (bispecific antibody)
# heavy: DIVLTQSPATLSVSPGERATISCRASQRVSSSTYSYMHWYQQKPGQPPKLLIKYASNLESGVPARFSGSGSGTDFTLTISSVEPEDFATYYCQHSWEIPPTFGGGTKLEIKRGGGGSGGGGSGGGGSQVQLVQSGAEVVKPGASVKLSCKASGYIFTSYYMYWVKQAPGQGLEWIGEINPSNGDTNFNEKFKSKATLTVDKSASTAYMELSSLRSEDTAVYYCTRSDGRNDMDSWGQGTLVTVSSGGGGSGGGGSGGGGSQVQLVQSGGGPVKPGGSLRLSCAASGFMFRAYSMNWVRQAPGKGLEWVSSISSSGRYIHYADSVKGRFTISRDNAKNSLYLQMNSLRAEDTAVYYCARETVMAGKALDYWGQGTLVTVSSASTKGPSVFPLAPSSKSTSEGTAALGCLVKDYFPEPVTVSWNSGALTSGVHTFPAVLQSSGLYSLSSVVTVPSSSLGTQTYICNVNHKPSNTKVDKKVEPKSS
# light: DIVLTQSPATLSVSPGERATISCRASQRVSSSTYSYMHWYQQKPGQPPKLLIKYASNLESGVPARFSGSGSGTDFTLTISSVEPEDFATYYCQHSWEIPPTFGGGTKLEIKRGGGGSGGGGSGGGGSQVQLVQSGAEVVKPGASVKLSCKASGYIFTSYYMYWVKQAPGQGLEWIGEINPSNGDTNFNEKFKSKATLTVDKSASTAYMELSSLRSEDTAVYYCTRSDGRNDMDSWGQGTLVTVSSGSTSGSGKPGSGEGSTKGDIVLTQSPGTLSLSPGETATLSCRASQSVGSNLAWYQQKPGQAPRLLIYGASTGATGVPARFSGSRSGTDFTLTITSLQPEDFATYYCQQYYSFLAKTFGQGTQLEIKRTVAAPSVFIFPPSDEQLKSGTASVVCLLNNFYPREAKVQWKVDNALQSGNSQESVTEQDSKDSTYSLSNTLTLSKADYEKHKVYACEVTHQGLSSPVTKSFNRGES
# notes: also called (anti-hu5c8 scFv)2-SL335; (scFv)2-Fab
# Legend:
# [1] = biological target: human serum albumin (HSA) (Sigma-Aldrich) (human) (UniProt P02768); test: BLI, rhCD40L immobilised, then APB-A1, then HSA
# [2] = biological target: human serum albumin (HSA) (Sigma-Aldrich) (human) (UniProt P02768); test: BLI
binder,measurement,setting,value
B1,binding,[1],binds
same,binding,[2],binds
